Experimental data reported in US20060063917A1, “Selection of peptide ligands specific for baculovirus DNA-binding protein from the FliTrxTM random peptide display library” (Vista Biologicals Corporation, priority 2004, published 2006).
Some results were stated once for a whole list of compounds, not compound by compound. Some ranges recur; such a range may be that of the whole group of compounds.

The chains behind the UniProt entries cited, without tags or fusion partners. Where a name states a change or a piece, a line headed by the entry shows the natural chain unless it says otherwise.
UniProt P41430: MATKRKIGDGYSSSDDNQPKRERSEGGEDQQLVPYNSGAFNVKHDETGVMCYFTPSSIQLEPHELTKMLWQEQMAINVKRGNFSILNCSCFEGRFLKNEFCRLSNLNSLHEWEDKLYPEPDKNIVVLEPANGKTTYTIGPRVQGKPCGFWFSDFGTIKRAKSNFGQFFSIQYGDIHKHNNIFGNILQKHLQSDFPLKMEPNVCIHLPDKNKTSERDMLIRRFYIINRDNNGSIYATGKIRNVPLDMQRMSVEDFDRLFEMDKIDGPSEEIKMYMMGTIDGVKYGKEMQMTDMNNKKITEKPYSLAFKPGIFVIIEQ

biological target: T1, His.Tag AcNPV DBP (Autographa californica nuclear polyhedrosis virus, UniProt P41430); experiment: ELISA for His.Tag AcNPV DBP screening using the FliTrx protein solution; assay type: binding, Autographa californica nucleopolyhedrovirus (AcNPV); details: wells coated with FliTrx protein solution of positive clones; 6 μg His.Tag AcNPV DBP added; mean of duplicate; mean O.D. of negative controls 0.14
T1 construct: made in house; host or cells: E. coli BL21 (DE3)
Experimental: ELISA Protocols for His.Tag AcNPV DBP Screening
ELISA procedure was used for analysis of His.Tag AcNPV DBP as a target. The polystyrene microtitration plates (PolySorp™ Surface, Immuno™ Plate, Nunc) were used as the solid phase for the assay. All washes were performed four times with phosphate-buffered saline (PBS) containing 0.05% (V/V) Tween® 20 (PBS-T). The substrate solution for alkaline phosphatase (p-nitrophenyl phosphate, pNPP, 1 mg/ml, in 0.2 M Tris-HCl buffer, pH 7) was from Sigma, St. Louis, Mo. The reaction was stopped by the addition of 3 M NaOH (50 μl per well). The optical density at 405 nm (O.D.λ=405 nm) was measured in a microplate colorimeter (Molecular Devices, Thermo max Microplate Reader).
1. Using the FliTrx™ Protein Solution
Wells of the microtitration plates were coated with the FliTrx™ protein solutions obtained from induced culture cell of positive clones that contain the peptides recognized by His.Tag AcNPV DBP (50 μl per well). To account for plate binders, empty plates were used as negative controls. After incubation overnight at +4° C., the plates were washed, and the uncoated attachment sites on the plates were saturated by incubation for 1 hour at 37° C. with a solution of 2% nonfat dry milk in PBS-T: PBS-T-M (200 μl per well). The plates were then washed, and an aliquot of 100 μl (6 μg) of the purified His.Tag AcNPV DBP was added to both the target plate and the control plate. Plates were incubated for. 1 hour at 37° C. The plates were then washed, and 100 μl of a 1:1,000 dilution of mouse monoclonal Ig G1 antibody to penta-His™ (QIAGEN, Valencia, Calif.) in PBS-T-M were added. After being incubated again for 1 hour at 37° C., the plates were washed, and 100 μl of a 1:1,000 dilution of goat anti-mouse IgG conjugated to alkaline phosphatase (Bio-Rad Laboratories, Hercules, Calif.) were added. After being incubated again for 1 hour at 37° C., the plates were washed, and substrate solution (200 [l per well) was added. After incubation for 1 hour at 37° C., the reaction was stopped.

Row | Sequence | ELISA (O.D. λ = 405 nm), affinity for His.Tag AcNPV DBP
1 | AGRKGERGSVLQ (baculovirus) [Peptide ligand No. 1, FliTrx selected dodecapeptide ligand recognized by His.Tag AcNPV DBP] | 1.11-1.21
2 | ADYGKGLRRAMG (baculovirus) [Peptide ligand No. 3, FliTrx selected dodecapeptide ligand recognized by His.Tag AcNPV DBP] | 1.11-1.21
3 | GGGGRRSGGACP (baculovirus) [Peptide ligand No. 4, FliTrx selected dodecapeptide ligand recognized by His.Tag AcNPV DBP] | 1.11-1.21
